# Reference: patent US20040005294A1, “IGFBP-3 in the diagnosis and treatment of cancer” (priority 2002, published 2004)
# By UniProt entry, the sequences of proteins in these tests, tags left out. Where a name states a change or a piece, a line headed by the entry shows the natural chain unless it says otherwise. Residues count along the entry.
# UniProt P05019, residues 49-118: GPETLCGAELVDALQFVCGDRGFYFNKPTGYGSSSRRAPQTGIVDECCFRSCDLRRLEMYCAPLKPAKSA
# UniProt P17936: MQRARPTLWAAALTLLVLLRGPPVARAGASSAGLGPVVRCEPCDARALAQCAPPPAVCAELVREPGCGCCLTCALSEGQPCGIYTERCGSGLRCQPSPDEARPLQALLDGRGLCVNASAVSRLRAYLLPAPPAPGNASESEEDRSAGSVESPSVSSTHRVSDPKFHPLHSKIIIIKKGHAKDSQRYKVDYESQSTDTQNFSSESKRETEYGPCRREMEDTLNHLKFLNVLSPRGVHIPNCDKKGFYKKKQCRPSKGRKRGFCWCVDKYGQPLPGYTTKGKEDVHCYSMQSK
# Results are given in words; binding and its absence hold for the method and conditions named. Some binding calls cover weakened binding; strength is not graded here.
# Target: IGF-I (UniProt P05019)
# Test: Western ligand blot of conditioned media, [125I] IGF-I as probe
substance,measurement,value
IGFBP-3 secreted from Ad5CMV-BP3-infected H1299 cells (human insulin growth factor binding protein 3) (from UniProt P17936 28-291),binding,binds
